Earlier results as cited in patent US10233198B2, “Pro-drugs of NSAIAs with very high skin and membranes penetration rates and their new medicinal uses” (Techfields Pharma Co., Ltd., priority 2007, dated 2019).
At least one structure is not confirmed: it was looked up by name or label, or the drawing left a doubt.

System: ALS mice
Conditions: cited from earlier work

For `Cc1ccc(-c2cc(C(F)(F)F)nn2-c2ccc(S(N)(=O)=O)cc2)cc1` [Celecoxib, celecoxib], the Prolonged survival is listed as 25%.
